# Laboratory results as given in the supplement of paper PMC12889115.
# The list shows a part of the results. These are raw signals, not scaled to a control.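 In the initial screen, polymyxin B was used at a concentration that permeabilizes Salmonella's outer membrane but not its inner membrane. Maximum growth was set by DMSO wells with or without polymyxin B. Since plates varied, data were ranked per plate, and compounds giving the lowest OD600 advanced as hits.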
# System: Salmonella enterica serovar Typhimurium SL1344
# Test: bacterial growth OD600 after 18 h with compound and polymyxin B; higher = more bacterial growth (less inhibition)
# Conditions: 50 µM, Mueller-Hinton broth
SMILES,bacterial growth OD600 (polymyxin B 0.75 µg/mL),bacterial growth OD600 (polymyxin B 1 µg/mL)
COCc1ccc(C(=O)Nc2ccc(-c3nc(CNC(=O)CCn4nccc4C)c(C)o3)cc2)o1,0.823,
COc1ccc2c(c1)OC(C)CN(CC(C)Cc1ccc3c(c1)OCO3)C2 (stereo unspecified),0.007,
Cc1nc2ccccc2n1Cc1cc(C(=O)N2CCCC2)no1,,0.842
CCOc1ccc(CN2CCN(Cc3cccc4c3OCO4)CC2CCO)cc1 (stereo unspecified),,0.948
O=C([C@@H]1C[C@@H]2C=C[C@H]1C2)N1CCc2onc(-c3ccccc3F)c2C1,0.669,
C=CCN(CC=C)C(=O)c1cc(NC(=O)CC2CCCC2)cc2nc(C3CCCO3)n(C)c12 (stereo unspecified),0.85,
CC1CCCN(C(=O)c2cn(Cc3ccc(Cl)cc3)nn2)C1 (stereo unspecified),,1.1
O=C(C[n+]1cc([O-])on1)NC1CCCc2c1cnn2-c1ccc(F)cc1F (stereo unspecified),,1.08
CCC1CN(CCC(=O)NCCCn2ncc3ccccc32)Cc2cc(OC)ccc2O1 (stereo unspecified),0.743,
COc1cccc(CCC2CCCN(C(=O)CCc3cccnc3)C2)c1 (stereo unspecified),0.792,
Cc1ccc(CN2CCN(Cc3ccccc3F)C(CCO)C2)s1 (stereo unspecified),,1
OCC1(Cc2ccccc2)CCCN(Cc2cccn2-c2ccc(Cl)cn2)C1 (stereo unspecified),,0.939
COCC(=O)Nc1cc(C(=O)N2CCCC(c3ccccc3)CC2)cc2nc(-c3cccnc3)n(C)c12 (stereo unspecified),0.825,
O=C(NCC1CCOCC1)c1ccc2oc(CCc3ccccc3)nc2c1,,0.939
COC(=O)c1c(S(=O)(=O)N2CCCC2)sc2c1CCN(C(=O)c1cc3ccccc3o1)C2,0.574,
COc1cccc(C(=O)N2CCCC(CCC(=O)N3CCN(Cc4ccccc4)CC3)C2)c1 (stereo unspecified),,0.95

SMILES,bacterial growth OD600 (polymyxin B 0.75 µg/mL),bacterial growth OD600 (polymyxin B 1 µg/mL)
C=C(C)CNC(=O)C1CCC(=O)N(Cc2cccc(C(F)(F)F)c2)C1 (stereo unspecified),,0.847
CN(CCc1nc2cc(Cl)ccc2[nH]1)C(=O)CCC1(Cc2cccc3ccccc23)CCC(=O)N1 (stereo unspecified),0.963,
COc1ccccc1Oc1ncccc1CNc1cnccn1,,1.02
O=C(NCCN1CCOCC1)c1ccc(N2CCC(NC[C@@H]3CCCN4CCCC[C@H]34)CC2)cc1,0.789,
CCNC(=O)C1CCCN1c1nc(C)c2ccc(S(C)(=O)=O)cc2n1 (stereo unspecified),0.959,
Cc1nonc1CNC1CCN(c2ccc(C(=O)NC(C)c3ccccc3)cc2)CC1 (stereo unspecified),0.796,
COc1ccc(CN2CCN(Cc3ccc4nsnc4c3)CC2CCO)c(C)c1C (stereo unspecified),,0.97
COCCNC(=O)c1ccc(OC)cc1OC1CCN(Cc2ccc(OC)cc2F)CC1,,0.995
COc1ccc(C2(CC(=O)N3CCC(Sc4ccc(F)cc4)CC3)CC(=O)N(C3CC3)C2=O)cc1 (stereo unspecified),0.824,
O=C(C1CCC(=O)N(C2CC2)C1)N1CCC(N2CCSCC2)CC1 (stereo unspecified),,1.15
CC(C)CCC1(C2CCN(C(=O)Cc3cc(F)cc(F)c3)CC2)NC(=O)N(Cc2ccccn2)C1=O (stereo unspecified),0.78,
COc1cccc(-c2n[nH]c3c2CN(C(=O)c2cc(C)nc(C)n2)CC3)c1,0.799,
COc1ccc(O)c(CN2CCC(C(Cc3ccccc3F)N(C)C(=O)c3ccsc3)CC2)c1 (stereo unspecified),0.466,
O=C(CC1(c2ccccc2Cl)CC(=O)N(C2CCCC2)C1=O)N1CCCCC1c1cccnc1 (stereo unspecified),0.003,
Cc1ccc2oc(C(=O)NC(c3cccnc3)C(F)(F)F)c(C)c2c1 (stereo unspecified),,1.14

# Quoted from the entries so far (2 entries):
SMILES,bacterial growth OD600 (polymyxin B 0.75 µg/mL),bacterial growth OD600 (polymyxin B 1 µg/mL)
O=C(NCCN1CCOCC1)c1ccc(N2CCC(NC[C@@H]3CCCN4CCCC[C@H]34)CC2)cc1,0.789,
CCNC(=O)C1CCCN1c1nc(C)c2ccc(S(C)(=O)=O)cc2n1 (stereo unspecified),0.959,
